Protein sequences, listed by entry. Tags and fused reporters are not part of them. Residues count along the entry.
UniProt Q92918, 1-346 limits assumed: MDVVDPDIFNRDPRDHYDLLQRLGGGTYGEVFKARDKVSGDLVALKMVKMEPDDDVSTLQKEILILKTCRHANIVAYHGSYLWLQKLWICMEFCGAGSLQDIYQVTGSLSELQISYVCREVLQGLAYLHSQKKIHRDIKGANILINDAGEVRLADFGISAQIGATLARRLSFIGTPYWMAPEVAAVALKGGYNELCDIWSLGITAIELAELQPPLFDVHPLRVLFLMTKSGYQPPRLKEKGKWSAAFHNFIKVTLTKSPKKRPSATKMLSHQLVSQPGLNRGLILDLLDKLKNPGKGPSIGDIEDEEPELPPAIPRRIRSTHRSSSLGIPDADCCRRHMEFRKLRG
UniProt P06239, whole entry: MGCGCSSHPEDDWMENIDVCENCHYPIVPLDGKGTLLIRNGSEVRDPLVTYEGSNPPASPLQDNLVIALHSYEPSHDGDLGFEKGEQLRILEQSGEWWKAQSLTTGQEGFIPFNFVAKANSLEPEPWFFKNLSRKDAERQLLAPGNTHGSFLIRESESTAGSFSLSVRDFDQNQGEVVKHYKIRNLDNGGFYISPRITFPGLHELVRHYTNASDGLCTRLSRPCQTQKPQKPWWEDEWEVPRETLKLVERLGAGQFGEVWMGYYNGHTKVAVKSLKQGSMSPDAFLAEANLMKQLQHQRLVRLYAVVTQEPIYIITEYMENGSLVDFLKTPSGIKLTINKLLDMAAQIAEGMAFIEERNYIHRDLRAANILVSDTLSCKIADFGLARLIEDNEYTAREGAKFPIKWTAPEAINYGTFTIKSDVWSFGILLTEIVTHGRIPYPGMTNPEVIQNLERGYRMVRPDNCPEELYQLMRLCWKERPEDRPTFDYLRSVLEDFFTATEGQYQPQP

In US20240343704A1, “HALO-SUBSTITUTED AMINO PYRIDINE COMPOUNDS AS INHIBITORS OF THE HAEMATOPOIETIC PROGENITOR KINASE 1 (HPK1)” (priority 2021, published 2024):

Tests used:
[1] = biological target: Recombinant (1-346) HPK1 (h) (Homo sapiens, UniProt Q92918); assay: HPK1 Human STE Kinase Enzymatic Radiometric Assay; settings: read-out: HPK1 IC50 nM Range*
[2] = biological target: Lck (h) (Homo sapiens, UniProt P06239); assay: Lck Human  Kinase Enzymatic Radiometric Assay; type: biochemical; settings: read-out: Lck IC50 nM Range*
Protocol: Lck (h) is incubated with 50 mM Tris pH 7.5, 0.1 mM EGTA, 0.1 mM Na3VO4, 250 uM KVEKIGEGTYGVVYK (Cdc2 peptide), 10 mM MgAcetate and [gamma-33P]-ATP (specific activity and concentration as required). The reaction is initiated by the addition of the Mg/ATP mix. After incubation for 40 minutes at RT, the reaction is stopped by the addition of phosphoric acid to a concentration of 0.5%. 10 uL of the reaction is then spotted onto a P30 filtermat and washed four times for 4 minutes in 0.425% phosphoric acid and once in methanol prior to drying and scintillation counting. For more details on the kinase assay procedures see: Gao, Y. et. al.; Biochem J., 451 (2): 313-328, 2013.

Row | SMILES | IC50 [1] [nM] | IC50 [2] [nM]
1 | Nc1nc(F)c(-c2ccc(N3CCN(CCC4CC4)CC3)cc2)cc1-c1cc(F)c2c(=O)[nH]ccc2c1 | 0.1 to 10 | > 1000
2 | C[C@@H](C1CC1)N1CCN(c2ccc(-c3cc(-c4cc(F)c5c(c4)CCNC5=O)c(N)nc3F)cc2)CC1 | 0.1 to 10 | 101 to 1000
3 | Nc1nc(F)c(-c2ccc(N3CCN(CCC4CC4)CC3)cc2)cc1-c1cc2cc[nH]c(=O)c2cc1F | 0.1 to 10 | > 1000
4 | Nc1nc(F)c(-c2ccc(N3CCN(CC4CC4)CC3)c(F)c2)cc1-c1cc(F)c2c(c1)CCNC2=O | 0.1 to 10 | > 1000

The structures given here were assigned with low confidence; some may be wrong.
